{"source": "the supplement of paper PMC8728848", "binders": {"B1": {"name": "Layilin (Mus musculus), Q8C351 (protein)", "chain": "MQPGAALQAMLLAVLLAKPRDSKGRLLSASDLDPRGGQLVCRGGTRRPCYKVIYFHDAFQRLNFEEAKETCMEDGGQLVSIETEDEQRLIEKFIENLLASDGDFWIGLKRLEEKQSNNTACQDLYAWTDGSTSQFRNWYVDEPSCGSEVCVVMYHQPSAPPGIGGSYMFQWNDDRCNMKNNFICKYHDDKPSTTPSIWPGGEATEPATPLLPEETQKEDTKETFKERREAALNLAYILIPSIPLFLLLVVTSAVCWVWICRRKREQTDPSTKEQHTIWPTPRQENSPNLDVYNVIRKQSEADLAEPRPDLKNISFRVCSGEAMPDDMSCDYENIAVNPSESGFVTLASMESGFVTNDIYEFSPDRMGRSKESGWVENEIYY"}}, "experiment_in_all_cases": "glycan array binding signal (z-score within array); higher = stronger binding", "conditions_in_all_cases": "glycan notation: IUPAC condensed, linker removed", "key": {"[1]": {"molecular_target": "Neu5Ac(a2-3)[GalNAc(b1-4)]Gal(b1-4)Glc", "summary_of_the_method": "(§1)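 Glycan array binding is given as a within-array Z-score, which can be read as non-binding when negative. The arrays, 3228 of them, came from the Consortium for Functional Glycomics database and were retained only where the protein sequence was available. Z-scores were averaged across arrays of the same protein sequence at different concentrations or buffers and across linkers.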"}, "[2]": {"molecular_target": "Neu5Ac(a2-3)[GalNAc(b1-4)]Gal(b1-4)GlcNAc", "summary_of_the_method": "as §1"}, "[3]": {"molecular_target": "Neu5Ac(a2-3)[GalNAc(b1-4)]Gal(b1-4)GlcNAc(b1-3)GalNAc", "summary_of_the_method": "as §1"}, "[4]": {"molecular_target": "Neu5Ac(a2-3)[Neu5Ac(a2-6)]GalNAc", "summary_of_the_method": "as §1"}, "Neu5Ac(a2-6)Gal": {"molecular_target": "Neu5Ac(a2-6)Gal", "summary_of_the_method": "as §1"}, "[5]": {"molecular_target": "Neu5Ac(a2-6)Gal(b1-3)GlcNAc(b1-3)[Gal(b1-4)GlcNAc(b1-6)]Gal(b1-4)Glc", "summary_of_the_method": "as §1"}, "Neu5Ac(a2-6)Gal(b1-4)Glc": {"molecular_target": "Neu5Ac(a2-6)Gal(b1-4)Glc", "summary_of_the_method": "as §1"}, "[6]": {"molecular_target": "Neu5Ac(a2-6)Gal(b1-4)GlcNAc", "summary_of_the_method": "as §1"}, "[7]": {"molecular_target": "Neu5Ac(a2-6)Gal(b1-4)GlcNAc(b1-2)Man(a1-3)Man(b1-4)GlcNAc(b1-4)GlcNAc", "summary_of_the_method": "as §1"}, "[8]": {"molecular_target": "Neu5Ac(a2-6)Gal(b1-4)GlcNAc(b1-2)Man(a1-3)[Gal(b1-4)GlcNAc(b1-2)Man(a1-6)]Man(b1-4)GlcNAc(b1-4)GlcNAc", "summary_of_the_method": "as §1"}, "[9]": {"molecular_target": "Neu5Ac(a2-6)Gal(b1-4)GlcNAc(b1-2)Man(a1-3)[GlcNAc(b1-2)Man(a1-6)]Man(b1-4)GlcNAc(b1-4)GlcNAc", "summary_of_the_method": "as §1"}, "[10]": {"molecular_target": "Neu5Ac(a2-6)Gal(b1-4)GlcNAc(b1-2)Man(a1-3)[GlcNAc(b1-2)Man(b1-4)GlcNAc(b1-2)Man(a1-6)]Man(b1-4)GlcNAc(b1-4)GlcNAc", "summary_of_the_method": "as §1"}, "[11]": {"molecular_target": "Neu5Ac(a2-6)Gal(b1-4)GlcNAc(b1-2)Man(a1-3)[Man(a1-6)]Man(b1-4)GlcNAc(b1-4)GlcNAc", "summary_of_the_method": "as §1"}, "[12]": {"molecular_target": "Neu5Ac(a2-6)Gal(b1-4)GlcNAc(b1-2)Man(a1-3)[Neu5Ac(a2-6)Gal(b1-4)GlcNAc(b1-2)Man(a1-6)]Man(b1-4)GlcNAc(b1-4)GlcNAc", "summary_of_the_method": "as §1"}, "[13]": {"molecular_target": "Neu5Ac(a2-6)Gal(b1-4)GlcNAc(b1-2)Man(a1-6)Man(b1-4)GlcNAc(b1-4)GlcNAc", "summary_of_the_method": "as §1"}, "[14]": {"molecular_target": "Neu5Ac(a2-6)Gal(b1-4)GlcNAc(b1-2)Man(a1-6)[Gal(b1-4)GlcNAc(b1-2)Man(a1-3)]Man(b1-4)GlcNAc(b1-4)GlcNAc", "summary_of_the_method": "as §1"}, "[15]": {"molecular_target": "Neu5Ac(a2-6)Gal(b1-4)GlcNAc(b1-2)Man(a1-6)[GlcNAc(b1-2)Man(a1-3)]Man(b1-4)GlcNAc(b1-4)GlcNAc", "summary_of_the_method": "as §1"}, "[16]": {"molecular_target": "Neu5Ac(a2-6)Gal(b1-4)GlcNAc(b1-2)Man(a1-6)[Man(a1-3)]Man(b1-4)GlcNAc(b1-4)GlcNAc", "summary_of_the_method": "as §1"}, "[17]": {"molecular_target": "Neu5Ac(a2-6)Gal(b1-4)GlcNAc(b1-3)Gal(b1-3)GlcNAc", "summary_of_the_method": "as §1"}, "[18]": {"molecular_target": "Neu5Ac(a2-6)Gal(b1-4)GlcNAc(b1-3)Gal(b1-4)GlcNAc", "summary_of_the_method": "as §1"}, "[19]": {"molecular_target": "Neu5Ac(a2-6)Gal(b1-4)GlcNAc(b1-3)Gal(b1-4)GlcNAc(b1-3)Gal(b1-4)GlcNAc", "summary_of_the_method": "as §1"}, "[20]": {"molecular_target": "Neu5Ac(a2-6)Gal(b1-4)GlcNAc(b1-3)Gal(b1-4)[Fuc(a1-3)]GlcNAc(b1-3)Gal(b1-4)[Fuc(a1-3)]GlcNAc", "summary_of_the_method": "as §1"}, "[21]": {"molecular_target": "Neu5Ac(a2-6)Gal(b1-4)GlcNAc(b1-3)GalNAc", "summary_of_the_method": "as §1"}, "[22]": {"molecular_target": "Neu5Ac(a2-6)Gal(b1-4)GlcNAc6S", "summary_of_the_method": "as §1"}, "Neu5Ac(a2-6)GalNAc": {"molecular_target": "Neu5Ac(a2-6)GalNAc", "summary_of_the_method": "as §1"}}, "note": "The other results are listed elsewhere or left out.", "data": [{"binder": "B1", "values": [{"measurement": "glycan array binding signal (z-score)", "setting": "[1]", "result": -0.643}, {"measurement": "glycan array binding signal (z-score)", "setting": "[2]", "result": -0.045}, {"measurement": "glycan array binding signal (z-score)", "setting": "[3]", "result": 0.49}, {"measurement": "glycan array binding signal (z-score)", "setting": "[4]", "result": -0.932}, {"measurement": "glycan array binding signal (z-score)", "setting": "Neu5Ac(a2-6)Gal", "result": -0.444}, {"measurement": "glycan array binding signal (z-score)", "setting": "[5]", "result": -0.887}, {"measurement": "glycan array binding signal (z-score)", "setting": "Neu5Ac(a2-6)Gal(b1-4)Glc", "result": 0.086}, {"measurement": "glycan array binding signal (z-score)", "setting": "[6]", "result": -0.655}, {"measurement": "glycan array binding signal (z-score)", "setting": "[7]", "result": -0.121}, {"measurement": "glycan array binding signal (z-score)", "setting": "[8]", "result": -0.033}, {"measurement": "glycan array binding signal (z-score)", "setting": "[9]", "result": -1.14}, {"measurement": "glycan array binding signal (z-score)", "setting": "[10]", "result": 1.47}, {"measurement": "glycan array binding signal (z-score)", "setting": "[11]", "result": 0.593}, {"measurement": "glycan array binding signal (z-score)", "setting": "[12]", "result": -0.339}, {"measurement": "glycan array binding signal (z-score)", "setting": "[13]", "result": -0.392}, {"measurement": "glycan array binding signal (z-score)", "setting": "[14]", "result": -0.426}, {"measurement": "glycan array binding signal (z-score)", "setting": "[15]", "result": -0.54}, {"measurement": "glycan array binding signal (z-score)", "setting": "[16]", "result": 0.321}, {"measurement": "glycan array binding signal (z-score)", "setting": "[17]", "result": -0.374}, {"measurement": "glycan array binding signal (z-score)", "setting": "[18]", "result": 0.558}, {"measurement": "glycan array binding signal (z-score)", "setting": "[19]", "result": -0.209}, {"measurement": "glycan array binding signal (z-score)", "setting": "[20]", "result": 0.134}, {"measurement": "glycan array binding signal (z-score)", "setting": "[21]", "result": 0.461}, {"measurement": "glycan array binding signal (z-score)", "setting": "[22]", "result": -0.397}, {"measurement": "glycan array binding signal (z-score)", "setting": "Neu5Ac(a2-6)GalNAc", "result": -0.757}]}]}
